In this experiment the test system is CD2F1 mice, L1210 leukemia ip, survival T/C. Kind of experiment: NCI In Vivo Anticancer Drug Screen. Data for tumor model L1210 Leukemia (intraperitoneal) in CD2F1 (CDF1) mice. The following applies: higher T/C = longer survival. The gist of the method:
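Antitumor effect is scored in animals hosting a serially transplanted tumor. Values compare compound-dosed animals against vehicle-only controls as a simple quotient.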

Where [1] appears, read: T/C endpoint: mean survival time, dose: 400.0 mg/kg/injection, schedule: Q04DX003 (ip), vehicle: saline.
The mark [2] stands for this setting: T/C endpoint: mean survival time, dose: 400.0 mg/kg/injection, schedule: Q01DX001 (ip), vehicle: saline.
Where [3] appears, read: T/C endpoint: median survival time, dose: 400.0 mg/kg/injection, schedule: Q01DX009 (ip), vehicle: Klucel (hydroxypropylcellulose) (HPC).
Where [4] appears, read: T/C endpoint: mean survival time, dose: 400.0 mg/kg/injection, schedule: Q01DX009 (ip), vehicle: saline with Tween-80.
Setting [5] is: T/C endpoint: mean survival time, dose: 6.25 mg/kg/injection, schedule: Q01DX009 (ip), vehicle: saline.

Structures are written as SMILES. The list shows only some results of the screen, not a fair sample: it gathers tests that were run many times, whatever their T/C, doses with no T/C, and many T/C values between a quarter and a half above the control. Other doses and runs of a compound stand elsewhere. T/C: endpoint of the treated group in % of that of the vehicle group. Some entries give survivors of the animals treated and no T/C: the source files T/C as zero there, which appears to mark a toxic dose or a test without result, not a measured value. Some survivor counts are full or nearly so, which does not show that the dose was tolerated: survival well below the control is almost never listed, so the zero probably covers shortened survival too. Counts of survivors are from the toxicity check (mostly the fifth day) where no day follows; animals may have died later. Schedules are NCI's codes, taken here to give the interval after Q, in days (D) or hours (H), and the number of doses after X. Counts like (3×) count equal records among those shown. Some doses were run more than once; their values stand side by side, smallest first. For survival time, this PubChem deposit counts one and a half times the control or more as active, and values a quarter to a half above the control carry no call in these data; other NCI protocols may use other cut-offs. Some T/C values carry the count of animals alive at the toxicity check (mostly the fifth day); without a count, all were alive then.

`N#CC1C2C=CC(C2)C1C#N` (stereo unspecified): the survivor count was 0 of 6 (T/C endpoint: mean survival time, dose: 75.0 mg/kg/injection, schedule: Q01DX001 (ip), vehicle: saline); 0 of 6 (T/C endpoint: mean survival time, dose: 150.0 mg/kg/injection, schedule: Q01DX001 (ip), vehicle: saline); 0 of 6 (T/C endpoint: mean survival time, dose: 300.0 mg/kg/injection, schedule: Q01DX001 (ip), vehicle: saline).
As to `CC(=O)OC1(c2ccccc2)CC(=O)C=C1c1ccccc1` (stereo unspecified), the survivor count is recorded as 0 of 3 (T/C endpoint: mean survival time, dose: 100.0 mg/kg/injection, schedule: Q04DX002 (ip), vehicle: saline with Tween-80); 0 of 3 (T/C endpoint: mean survival time, dose: 200.0 mg/kg/injection, schedule: Q04DX002 (ip), vehicle: saline with Tween-80); 0 of 3 (T/C endpoint: mean survival time, dose: 400.0 mg/kg/injection, schedule: Q04DX002 (ip), vehicle: saline with Tween-80).
As for `COS(=O)(=O)O`, under setting [1], the survivor count is given as 3 of 6.
For `Brc1ccc(C[N+]23CCN(CC2)CC3)cc1`, the survivor count is 2 of 6 (T/C endpoint: mean survival time, dose: 100.0 mg/kg/injection, schedule: Q01DX001 (ip), vehicle: saline); 0 of 6 (T/C endpoint: mean survival time, dose: 200.0 mg/kg/injection, schedule: Q01DX001 (ip), vehicle: saline); 0 of 6 under setting [2].
Consider `CC1CCC(n2cnc3c(Cl)ncnc32)O1` (stereo unspecified), for which the T/C under setting [3] was 134 and 137 % of control. The survivor count under setting [3] was 1 of 6 and the survivor count (T/C endpoint: median survival time, dose: 800.0 mg/kg/injection, schedule: Q01DX009 (ip), vehicle: Klucel (hydroxypropylcellulose) (HPC)) is reported as 0 of 6.
On to `C1=NCCN1`, for which, under “T/C endpoint: mean survival time, dose: 400.0 mg/kg/injection, schedule: Q01DX009 (ip), vehicle: saline”, the survivor count was 0 of 6.
`CCCCCCOC(CN(C)C)C(Cl)(Cl)Cl` (stereo unspecified): the survivor count under setting [4] was 0 of 6.
In the case of `Cc1c(C)c(O)c(Br)c(C)c1O` (tested in a mixture with another compound), the survivor count (T/C endpoint: mean survival time, dose: 100.0 mg/kg/injection, schedule: Q04DX003 (ip), vehicle: other) is given as 2 of 6.
As for `CC[n+]1ccc(Nc2ccc(NC(=O)c3ccc(C(=O)Nc4ccc(Nc5cc[n+](CC)c(N)n5)cc4)cc3)cc2)nc1N`, the T/C was 131 % of control under setting [5]; 131 % of control (T/C endpoint: mean survival time, dose: 67.0 mg/kg/injection, schedule: Q01DX001 (ip), vehicle: Klucel (hydroxypropylcellulose) (HPC)); 131 % of control (T/C endpoint: mean survival time, dose: 100.0 mg/kg/injection, schedule: Q01DX001 (ip), vehicle: Klucel (hydroxypropylcellulose) (HPC)); 139 % of control (T/C endpoint: mean survival time, dose: 100.0 mg/kg/injection, schedule: Q01DX009 (ip), vehicle: saline); 135 % of control [5 of 6 alive] (T/C endpoint: mean survival time, dose: 133.0 mg/kg/injection, schedule: Q01DX009 (ip), vehicle: saline).
`COC(=O)c1c2ccccc2[n+](C)c2ccccc12`: the survivor count under setting [2] is given as 2 of 6.
Take `CC(=O)c1cc([N+](=O)[O-])ccc1O`: the survivor count is given as 3 of 6 (T/C endpoint: mean survival time, dose: 200.0 mg/kg/injection, schedule: Q04DX003 (ip), vehicle: saline with Tween-80) and 1 of 6 (T/C endpoint: mean survival time, dose: 400.0 mg/kg/injection, schedule: Q04DX003 (ip), vehicle: saline with Tween-80).
For the compound `CC(=O)/C(=C\c1ccc(Cl)c(Cl)c1)C(=O)CCN(C)C`, the T/C (T/C endpoint: median survival time, dose: 100.0 mg/kg/injection, schedule: Q01DX009 (ip), vehicle: saline) is 127 % of control [5 of 6 alive]. Further, where the note is “T/C endpoint: median survival time, dose: 200.0 mg/kg/injection, schedule: Q01DX009 (ip), vehicle: saline”, the survivor count is given as 0 of 6.
As for `C[S+](C)CCC(N)C(=O)O` (stereo unspecified) (tested in a mixture with another compound), the survivor count is 1 of 3 (2×) (T/C endpoint: median survival time, dose: 200.0 mg/kg/injection, schedule: Q04DX002 (ip), vehicle: saline) and 0 of 3 (T/C endpoint: median survival time, dose: 400.0 mg/kg/injection, schedule: Q04DX002 (ip), vehicle: saline).
As for `CC[C@]12CN3CCc4c([nH]c5ccccc45)[C@@](C(=O)OC)(c4cc5c(cc4OC)N(C)[C@H]4[C@@](O)(C(=O)OC)[C@H](OC(C)=O)[C@]6(CC)C=CCN7CC[C@]54[C@@H]76)CC(C3)[C@H]1O2` (stereo partly specified), the T/C is 129 % of control [5 of 6 alive] under setting [5]; 132 % of control (T/C endpoint: mean survival time, dose: 25.0 mg/kg/injection, schedule: Q04DX003 (ip), vehicle: saline); 140 % of control (T/C endpoint: median survival time, dose: 4.0 mg/kg/injection, schedule: Q03HX008 (ip), vehicle: saline); 125 % of control [8 of 10 alive] (T/C endpoint: median survival time, dose: 4.0 mg/kg/injection, schedule: Q03HX016 (ip), vehicle: saline); 130 % of control (T/C endpoint: median survival time, dose: 4.0 mg/kg/injection, schedule: Q03HX024 (ip), vehicle: saline); 125 % of control (T/C endpoint: median survival time, dose: 8.0 mg/kg/injection, schedule: Q01DX009 (ip), vehicle: saline). The T/C was 130 % of control (T/C endpoint: median survival time, dose: 16.0 mg/kg/injection, schedule: Q04DX003 (ip), vehicle: saline); 130 % of control (T/C endpoint: median survival time, dose: 32.0 mg/kg/injection, schedule: Q04DX003 (ip), vehicle: saline); 125 % of control (T/C endpoint: median survival time, dose: 32.0 mg/kg/injection, schedule: Q08DX002 (ip), vehicle: saline); 125 % of control (T/C endpoint: median survival time, dose: 64.0 mg/kg/injection, schedule: Q01DX001 (ip), vehicle: saline). Further, the survivor count is, setting by setting: (T/C endpoint: mean survival time, dose: 12.5 mg/kg/injection, schedule: Q01DX009 (ip), vehicle: saline) 4 of 6; (T/C endpoint: mean survival time, dose: 25.0 mg/kg/injection, schedule: Q01DX009 (ip), vehicle: saline) 1 of 6; (T/C endpoint: mean survival time, dose: 100.0 mg/kg/injection, schedule: Q04DX003 (ip), vehicle: saline) 0 of 6; (T/C endpoint: mean survival time, dose: 200.0 mg/kg/injection, schedule: Q04DX003 (ip), vehicle: saline) 0 of 6; under setting [1], 0 of 6; (T/C endpoint: median survival time, dose: 8.0 mg/kg/injection, schedule: Q03HX008 (ip), vehicle: saline) 3 of 10. Also, the survivor count runs as follows: (T/C endpoint: median survival time, dose: 8.0 mg/kg/injection, schedule: Q03HX016 (ip), vehicle: saline) 5 of 10; (T/C endpoint: median survival time, dose: 8.0 mg/kg/injection, schedule: Q03HX024 (ip), vehicle: saline) 5 of 10; (T/C endpoint: median survival time, dose: 32.0 mg/kg/injection, schedule: Q01DX009 (ip), vehicle: saline) 5 of 10; (T/C endpoint: median survival time, dose: 64.0 mg/kg/injection, schedule: Q08DX002 (ip), vehicle: saline) 6 of 10.
In the case of `CC(=O)CC(C)=O.CC(=O)CC(C)=O.O=N[O-].O=N[O-].[Co]`, for the setting “T/C endpoint: median survival time, dose: 50.0 mg/kg/injection, schedule: Q01DX009 (ip), vehicle: saline with Tween-80”, the T/C was 127 % of control. Besides, the survivor count runs as follows: (T/C endpoint: median survival time, dose: 100.0 mg/kg/injection, schedule: Q01DX009 (ip), vehicle: saline with Tween-80) 1 of 6 and 3 of 6; (T/C endpoint: median survival time, dose: 200.0 mg/kg/injection, schedule: Q01DX009 (ip), vehicle: saline with Tween-80) 0 of 6.
On to `CCCCc1ccc2nc(NC(=O)OC)[nH]c2c1`, for which the T/C (T/C endpoint: mean survival time, dose: 25.0 mg/kg/injection, schedule: Q01DX009 (ip), vehicle: saline with Tween-80) was 128 % of control and the T/C (T/C endpoint: mean survival time, dose: 50.0 mg/kg/injection, schedule: Q01DX009 (ip), vehicle: saline with Tween-80) was 134 % of control.
With `O=C(O)/C=C/C(=O)Nc1ccccc1Cl`, under setting [4], the survivor count was 1 of 6.
Turning to `Nc1ncnc2c1c(-c1ncn[nH]1)cn2C1OC(CO)C(O)C1O` (stereo unspecified), the survivor count is 0 of 6 (T/C endpoint: mean survival time, dose: 100.0 mg/kg/injection, schedule: Q01DX005 (ip), vehicle: saline) and 0 of 6 (T/C endpoint: mean survival time, dose: 200.0 mg/kg/injection, schedule: Q01DX005 (ip), vehicle: saline).
In the case of `Cc1ccc(Cl)c2ccccc12`, the survivor count (T/C endpoint: mean survival time, dose: 200.0 mg/kg/injection, schedule: Q01DX009 (ip), vehicle: saline with Tween-80) is 3 of 6 and the survivor count under setting [4] is 2 of 6.
With `O=C(CCl)Nc1ccccc1Cl`, the survivor count (T/C endpoint: mean survival time, dose: 400.0 mg/kg/injection, schedule: Q04DX003 (ip), vehicle: Klucel (hydroxypropylcellulose) (HPC)) was 3 of 6.
In the case of `Oc1ccc(Br)cc1/C=N/c1nc(-c2ccccc2)cs1.Oc1ccc(Br)cc1/C=N/c1nc(-c2ccccc2)cs1.[Co]`, the survivor count under setting [2] is recorded as 3 of 3.
For the compound `CCCCOP(=O)(OCCCC)OC(=C(Cl)Cl)P(=O)(OCCCC)OCCCC`, the survivor count (T/C endpoint: mean survival time, dose: 400.0 mg/kg/injection, schedule: Q04DX002 (ip), vehicle: saline) is 2 of 3.

The values are drawn from PubChem BioAssay AID256 (DTP/NCI, 2004).
